Results are given in words; binding and its absence hold for the method and conditions named. In cells and extracts the contact can be indirect. Binding calls can cover weak binding; strength is not graded here.
Biological target: dual-specific (d)AKAP1 (UniProt O88884)
Test: split reporter; NanoBiT luciferase complementation in live COS-1 and HEK293 cells; 3 h Opti-MEM to deplete basal cAMP; 37°C; normalised to maximum complementation (HiBiT peptide) and to the RIβ^WT-LgBiT, RIβ^WT-SmBiT condition

Sequences of proteins named here, by UniProt entry; tags and fusion partners are left off. A change or cut given only in a name is not applied to a line headed by its entry.
UniProt O88884: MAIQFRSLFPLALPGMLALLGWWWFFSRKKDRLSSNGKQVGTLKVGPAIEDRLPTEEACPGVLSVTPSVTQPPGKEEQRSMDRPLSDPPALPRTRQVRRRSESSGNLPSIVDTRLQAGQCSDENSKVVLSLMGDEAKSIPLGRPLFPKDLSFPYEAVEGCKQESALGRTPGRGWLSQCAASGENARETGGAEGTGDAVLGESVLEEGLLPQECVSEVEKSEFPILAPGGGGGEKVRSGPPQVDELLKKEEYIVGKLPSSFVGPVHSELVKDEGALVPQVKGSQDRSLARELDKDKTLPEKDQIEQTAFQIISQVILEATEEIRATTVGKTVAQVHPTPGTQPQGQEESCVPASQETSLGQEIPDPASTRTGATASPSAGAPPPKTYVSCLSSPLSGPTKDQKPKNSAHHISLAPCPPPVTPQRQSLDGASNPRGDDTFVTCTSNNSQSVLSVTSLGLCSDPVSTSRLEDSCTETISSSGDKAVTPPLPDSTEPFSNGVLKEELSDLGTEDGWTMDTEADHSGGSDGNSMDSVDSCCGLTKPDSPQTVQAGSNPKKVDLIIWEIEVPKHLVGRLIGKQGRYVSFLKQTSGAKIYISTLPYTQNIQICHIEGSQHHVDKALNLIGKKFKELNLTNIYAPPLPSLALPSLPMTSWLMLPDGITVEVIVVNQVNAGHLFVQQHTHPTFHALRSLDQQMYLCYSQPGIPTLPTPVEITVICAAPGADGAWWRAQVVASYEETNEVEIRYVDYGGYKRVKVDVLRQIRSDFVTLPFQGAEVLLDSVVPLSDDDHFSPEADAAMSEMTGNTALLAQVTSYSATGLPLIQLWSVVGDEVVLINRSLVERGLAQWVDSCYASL
UniProt P31321: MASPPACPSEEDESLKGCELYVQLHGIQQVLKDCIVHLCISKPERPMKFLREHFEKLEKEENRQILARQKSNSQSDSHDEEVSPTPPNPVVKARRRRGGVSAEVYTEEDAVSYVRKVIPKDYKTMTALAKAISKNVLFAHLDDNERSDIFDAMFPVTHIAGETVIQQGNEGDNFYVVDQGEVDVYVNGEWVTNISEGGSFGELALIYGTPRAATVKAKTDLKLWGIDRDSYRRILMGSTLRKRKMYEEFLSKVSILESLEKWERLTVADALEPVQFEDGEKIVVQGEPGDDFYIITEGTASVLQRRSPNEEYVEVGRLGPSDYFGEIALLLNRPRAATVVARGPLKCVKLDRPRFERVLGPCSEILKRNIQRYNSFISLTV

binding: binds
Substance: RIβ^WT-SmBiT (from UniProt P31321 1-381)

Source: PMC12369641
